Test: general procedure: peptide synthesis; PyBOP/HOBt
Details: late stage modification step, tris trifluoroacetate salt

3″ -N-(4-(3,4-dichlorobenzyloxy)-benzyl)-6′-deoxy-6′-guanidinyl-vancomycin morpholine amide, tris trifluoroacetate salt
step yield: 84% yield
